# In patent US20050163711A1, “Intra-dermal delivery of biologically active agents” (Becton, Dickinson and Company, Inc., priority 2003, published 2005):
# Experiment: Comparison of ID (34G, 1 mm) and Mantoux injections, depot measurement in skin sections
# Format: in vivo, Yorkshire swine
# Settings: for site of deposition in skin section: swine
compound,measurement,setting,value
Cc1cc(-c2ccc(/N=N/c3ccc4c(S(=O)(=O)O)cc(S(=O)(=O)O)c(N)c4c3O)c(C)c2)ccc1/N=N/c1ccc2c(S(=O)(=O)O)cc(S(=O)(=O)O)c(N)c2c1O [Evans Blue],"average lower depth of depot, 34G 1 mm needle relative to Mantoux injection","swine flank, 25 uL, p=0.03",1.2 mm
same,"depot width, ID 34G 1 mm needle vs Mantoux injection","swine flank, 25 uL, t-Test",significantly (p=0.05) smaller width
same,"overall depot height, ID 34G 1 mm needle vs Mantoux injection","swine flank, 25 uL, t-Test p=0.45",no significant difference
same,site of deposition in skin section,34G 1 mm needle,completely within the dermis
same,site of deposition in skin section,"Mantoux injection, 27G needle",majority of the EB was injected into the SC
